At least one structure is not confirmed: it was looked up by name or label, or the drawing left a doubt.
Experiment: Stability of TA 2005 + budesonide HFA 134a compositions with phosphoric acid, 40° C. and 75% relative humidity
Type: physicochemical
Conditions: TA 2005 1 μg + budesonide 200 μg/actuation, phosphoric acid 85% 0.0032 or 0.0064% w/w, 0.15% w/w water
Experimental: The two compositions containing TA 2005 and budesonide as active ingredients and two different concentrations of phosphoric acid as shown in Table 4 were prepared.
Volume of the valve: 63 μl; strength: TA 2005 1 μg+budesonide 200 μg/actuation; no. of actuations: 120 (34 overfilling doses).
The two active ingredients in the compositions were stable after three months storage at 40° C. and 75% relative humidity, giving residual percent amounts of at least 95% TA 2005 and about 100% of Budesonide.

SMILES: CCCC1O[C@@H]2C[C@H]3[C@@H]4CCC5=CC(=O)C=C[C@]5(C)[C@H]4[C@@H](O)C[C@]3(C)[C@]2(C(=O)CO)O1 (stereo partly shown) [Budesonide, budesonide, reference compound]
- residual percent amount after three months storage: about 100%

Reference: patent publication US20050220718A1, “Stable pharmaceutical solution formulations for pressurized metered dose inhalers” (Chiesi Farmaceutici S.p.A., priority 2004, published 2005)
